# Measurements as given in PubChem BioAssay AID2417 (National Center for Advancing Translational Sciences (NCATS), 2010).
# The whole screen tested about 140,000 compounds, of which about 4,300 (3.1%) were called active. The shares of active, inactive and inconclusive entries below differ from those in the screen.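 How the source made its calls: active means readout at or below -70, meaning at least 70% loss of cells showing the perinucleolar compartment, a nuclear body marking cancer cells; inconclusive means readout between -30 and a set limit; inactive means the rest.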
# Test: High Content Assay for Compounds that inhibit the Assembly of the Perinucleolar Compartment;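 further: plate controls were DMSO wells for no effect and camptothecin positive control wells for full effect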
# Conditions: PC3M PTB-GFP, PNC prevalence imaging, 16 h; at 10 µM; stronger effect = lower value
# Outline: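 Read-out is percentage of cells bearing a perinucleolar compartment, from automated 20x imaging of fixed, Hoechst-stained PC3M PTB-GFP cells. Cells were seeded 4 h, then exposed 16 h to compound (23 nl of library stock) in duplicate plates.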
row,Compound,"activity change (PNC), negative = inhibition"
1,COc1ccc(OCC(=O)Nc2ccc(N3CCOCC3)cc2)cc1,inactive: 18.5%
2,O=C(Nc1ccc2cn[nH]c2c1)c1ccccc1F,inconclusive: -74.7%
3,COCC(C)n1c(C)cc(C(=O)COC(=O)CN=C2NS(=O)(=O)c3ccccc32)c1C (centres undefined),inactive: 3.09%
4,CCOCCn1cnc2sc(C(=O)Nc3nc(C)c(C(=O)OCC)s3)c(C)c2c1=O,active: -81.7%
5,COc1ccc(CN2CCN(S(=O)(=O)c3ccc(C)cc3)CC2)cc1Br,inconclusive: -33.7%
6,Cc1ccc(Nc2nc(CSc3nnnn3-c3ccccc3)cc(=O)[nH]2)cc1,inconclusive: -41.2%
7,COc1cccc(NC(=O)CN2C(=O)C(c3ccc(C)cc3)=NC23CCCCCC3)c1,inconclusive: -69.5%
8,O=c1cc(-c2ccccc2)nc(SCc2ccccc2)[nH]1,inconclusive: -62.7%
9,Cc1ccc(N2C(=O)c3ccc(N)cc3C2=O)cc1,inconclusive: -69.2%
10,CCn1c(=N)n(CC(=O)c2ccco2)c2ccccc21,inconclusive: -66.3%
11,Cc1ccc(C)c(OCC(=O)N2CCN(C(=O)c3ccco3)CC2)c1,inconclusive: -43.4%
12,CNC(=O)CSc1nc(N)c2c3c(sc2n1)CCC3,inconclusive: -37.3%
13,O=C(O)CNS(=O)(=O)c1ccc(F)cc1,inconclusive: -74.7%
14,COC(=O)c1c(C)[nH]c(C(=O)/C=C/c2cccc(Cl)c2)c1C,inconclusive: -36.7%
15,CCCc1c(C)c2ccc(OCC(C)=O)cc2oc1=O,inconclusive: -64.3%
16,O.O.O.O=S(=O)([O-])OC[C@H]1O[C@@H](O[C@]2(COS(=O)(=O)[O-])O[C@H](OS(=O)(=O)[O-])[C@@H](OS(=O)(=O)[O-])[C@@H]2OS(=O)(=O)[O-])[C@H](OS(=O)(=O)[O-])[C@@H](OS(=O)(=O)[O-])[C@@H]1OS(=O)(=O)[O-].[Al],inconclusive: -36.8%
17,C/C(=N\Nc1nc2c(s1)CCCC2)c1ccc(Cl)cc1,inconclusive: -36.1%
18,CC(C)c1ccc(N(CC(=O)NCCSC(C)(C)C)S(C)(=O)=O)cc1,inactive: 0.768%
19,Cc1c(C)[n+](=O)c2c(n1[O-])CCCCC2,inconclusive: -55.5%
20,CCCc1nn(C)c2c1C(c1ccncc1)C(C#N)=C(N)O2 (centres undefined),inactive: -6%
21,O=C(/C=C/c1cccc(Cl)c1)c1nc2ccccc2[nH]1,inactive: 39.2%
22,CSCC[C@H](NC(=O)OC(C)(C)C)c1nnc(SCC=C(C)C)o1,inactive: -18.4%

# A draw from above in order of formula weight, largest number first:
row,Compound,"activity change (PNC), negative = inhibition"
6,Cc1ccc(Nc2nc(CSc3nnnn3-c3ccccc3)cc(=O)[nH]2)cc1,inconclusive: -41.2%
1,COc1ccc(OCC(=O)Nc2ccc(N3CCOCC3)cc2)cc1,inactive: 18.5%
17,C/C(=N\Nc1nc2c(s1)CCCC2)c1ccc(Cl)cc1,inconclusive: -36.1%
20,CCCc1nn(C)c2c1C(c1ccncc1)C(C#N)=C(N)O2 (centres undefined),inactive: -6%
12,CNC(=O)CSc1nc(N)c2c3c(sc2n1)CCC3,inconclusive: -37.3%
21,O=C(/C=C/c1cccc(Cl)c1)c1nc2ccccc2[nH]1,inactive: 39.2%
10,CCn1c(=N)n(CC(=O)c2ccco2)c2ccccc21,inconclusive: -66.3%
13,O=C(O)CNS(=O)(=O)c1ccc(F)cc1,inconclusive: -74.7%

# (more compounds)

row,Compound,"activity change (PNC), negative = inhibition"
1,Cc1cc(Cl)ccc1OC(C)C(=O)Nc1ccc([N+](=O)[O-])cn1 (centres undefined),inconclusive: -37%
2,OCCN1CCN(CC#CCn2c3ccccc3c3ccccc32)CC1,inconclusive: -42.2%
3,O=C(Cn1cnc2c(nnn2Cc2ccc(F)cc2)c1=O)NC1CCCC1,inconclusive: -32.9%
4,COCCCNc1ncnc2c1cnn2-c1ccc(C)cc1C,inconclusive: -38.6%
5,COc1ccc(Cc2nnc(SCC(=O)NCc3ccco3)o2)cc1,inconclusive: -52.6%
6,COc1ccc(N2C(=O)CSC23C(=O)N2CCCc4cccc3c42)cc1 (centres undefined),inactive: -5.31%
7,N#C/C(=C\Nc1ccc2c(c1)OCCO2)c1nc(-c2ccccc2)cs1,inactive: 2.27%
8,CCOC(=O)c1cc(C(=O)OCC)c2ccccn2c1=O,inconclusive: -68.8%
9,CC(C)C(=O)Nc1ccc(NC(=O)c2ccc([N+](=O)[O-])cc2Cl)cc1,inconclusive: -56.9%
10,O=C(CSc1ncnc2c1cnn2Cc1ccccc1)Nc1ccc2c(c1)OCCO2,inconclusive: -50.7%
11,O=C(NCc1ccccc1C(F)(F)F)C12CN(Cc3ccccc3)CC1C(c1ccc([N+](=O)[O-])cc1)=NO2 (centres undefined),active: -119%
12,Cc1c(Br)c([N+](=O)[O-])nn1CC(=O)Nc1sc2c(c1C(=O)OC(C)C)CCCC2,inactive: 25.9%
13,COc1ccc(OCc2nn3c(Cn4cnc5ccccc54)nnc3s2)cc1,inactive: 42.8%
14,COc1cccc(CN(Cc2ccco2)C(c2ccc(F)cc2)c2nnnn2C(C)(C)C)c1 (centres undefined),inconclusive: -50.8%
15,CN1CCc2c(sc3c2C(=O)NC(c2cccs2)N3)C1 (centres undefined),inconclusive: -31.5%
16,CC1CCCN(C(=O)C(C)Sc2nc(-c3ccccc3)cc(C(F)(F)F)n2)C1 (centres undefined),inconclusive: -35.2%
17,CCCSc1nnc2[nH]c(=O)cc(N)n12,inactive: 77.1%
18,Cc1ccc2[nH]c(=O)c(CN(CC3CCCO3)C(=O)c3ccco3)cc2c1 (centres undefined),inconclusive: -54.3%
19,COc1ccc2oc(=O)c(C(=O)N3CCN(c4ccccc4F)CC3)cc2c1,inconclusive: -42.4%
20,Cc1cccc(NC(=O)CN(C)S(=O)(=O)c2ccc(Br)cc2)n1,inconclusive: -53.9%
21,O=C1C(Cl)=C(N2CCN(c3ccccc3[N+](=O)[O-])CC2)C(=O)c2ccccc21,inconclusive: -67.8%
22,O=C1/C(=C/c2cccnc2)Oc2cc(OS(=O)(=O)c3ccc(F)cc3)ccc21,inactive: 13.9%
